The results in this text go back to US20190016815A1 (TRACON PHARMACEUTICALS, published 2019).

The target of the experiment is T1, human CD105 (R&D Systems Cat. No. 1097-EN) (human) (UniProt P17813).
T1 sequence (looked up): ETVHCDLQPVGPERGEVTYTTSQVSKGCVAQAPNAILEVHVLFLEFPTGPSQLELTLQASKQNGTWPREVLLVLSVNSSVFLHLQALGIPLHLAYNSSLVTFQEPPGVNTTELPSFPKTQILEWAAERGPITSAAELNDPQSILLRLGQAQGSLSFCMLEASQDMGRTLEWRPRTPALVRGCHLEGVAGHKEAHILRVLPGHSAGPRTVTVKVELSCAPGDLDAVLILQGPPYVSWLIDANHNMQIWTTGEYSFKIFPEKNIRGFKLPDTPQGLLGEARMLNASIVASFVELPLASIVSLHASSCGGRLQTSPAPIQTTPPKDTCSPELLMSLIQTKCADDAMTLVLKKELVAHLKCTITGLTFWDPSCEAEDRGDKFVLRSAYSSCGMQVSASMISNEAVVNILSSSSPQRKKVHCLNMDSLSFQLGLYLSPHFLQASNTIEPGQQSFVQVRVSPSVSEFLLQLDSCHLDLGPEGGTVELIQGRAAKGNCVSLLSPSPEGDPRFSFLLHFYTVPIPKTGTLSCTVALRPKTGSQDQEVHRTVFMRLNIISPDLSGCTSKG
Description: competition ELISA on human CD105 captured on the plate (100 ng/ml); competitor: biotinylated chimeric anti-CD105 at 6.25 ng/ml; streptavidin-HRP, TMB, OD450. (In general: In an ELISA, binding on a coated surface is turned into a signal by an enzyme label.)

Changes are numbered by the printed parent chain. Results are given in words; binding and its absence hold for the method and conditions named. Some results given as binding are weak or reduced against the parent protein; the word gives no strength.

B1: VK2AAVH1A2 (antibody, V domains shown)
VH: EVQLVESGGGLVKPGGSLRLSCAASGFTFSDAWMDWVRQAPGKGLEWVGEARSKASNHATYYAESVKGRFTISRDDSKNTLYLQMNSLKTEDTAVYYCTRWRRFFDSWGQGTLVTVSS
VL: DIQLTQSPSSLSASVGDRATITCRASSSVSYMHWYQQKPGKAPKPWAYATSNLASGVPSRFSGSGSGTDYTLTISSLQPEDFATYYCQQWSSNPLTFGGGTKVEIK
As to B1, the binding entry is recorded as “binds”.

B2: VK2SAVH1A2 (antibody, V domains shown)
VH: B1 VH
VL: B1 VL with A19V, T22S
Consider B2, for which the binding result is listed as “binds”.

B3: VK2SAVH1A (antibody, V domains shown)
VH: B1 VH with G49A, A51I
VL: B1 VL with A19V, T22S
For B3, the binding result is “binds”.

B4: VK2SSVH1A2 (antibody, V domains shown)
VH: B1 VH
VL: B1 VL with A19V, T22S, A47I, T50S
As for B4, the binding entry was “binds”.
